The values below come from article doi:10.1101/2022.11.06.515384.

Amino acid sequences for entries named in this document (tags omitted).
UniProt P14618: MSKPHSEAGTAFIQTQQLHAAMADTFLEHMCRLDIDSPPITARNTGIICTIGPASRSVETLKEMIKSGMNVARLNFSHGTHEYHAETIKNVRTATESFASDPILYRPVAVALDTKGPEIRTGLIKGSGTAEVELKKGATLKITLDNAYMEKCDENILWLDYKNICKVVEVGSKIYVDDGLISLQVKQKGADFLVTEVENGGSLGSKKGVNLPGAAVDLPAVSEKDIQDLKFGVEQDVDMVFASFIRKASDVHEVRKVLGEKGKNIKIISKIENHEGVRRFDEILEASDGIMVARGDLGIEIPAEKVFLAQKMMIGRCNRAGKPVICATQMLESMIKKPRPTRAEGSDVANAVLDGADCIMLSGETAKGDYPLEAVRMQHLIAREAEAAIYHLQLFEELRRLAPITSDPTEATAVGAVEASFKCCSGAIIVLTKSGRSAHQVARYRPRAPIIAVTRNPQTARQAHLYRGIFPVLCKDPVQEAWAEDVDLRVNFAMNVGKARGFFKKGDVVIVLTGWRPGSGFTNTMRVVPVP
UniProt Q16665: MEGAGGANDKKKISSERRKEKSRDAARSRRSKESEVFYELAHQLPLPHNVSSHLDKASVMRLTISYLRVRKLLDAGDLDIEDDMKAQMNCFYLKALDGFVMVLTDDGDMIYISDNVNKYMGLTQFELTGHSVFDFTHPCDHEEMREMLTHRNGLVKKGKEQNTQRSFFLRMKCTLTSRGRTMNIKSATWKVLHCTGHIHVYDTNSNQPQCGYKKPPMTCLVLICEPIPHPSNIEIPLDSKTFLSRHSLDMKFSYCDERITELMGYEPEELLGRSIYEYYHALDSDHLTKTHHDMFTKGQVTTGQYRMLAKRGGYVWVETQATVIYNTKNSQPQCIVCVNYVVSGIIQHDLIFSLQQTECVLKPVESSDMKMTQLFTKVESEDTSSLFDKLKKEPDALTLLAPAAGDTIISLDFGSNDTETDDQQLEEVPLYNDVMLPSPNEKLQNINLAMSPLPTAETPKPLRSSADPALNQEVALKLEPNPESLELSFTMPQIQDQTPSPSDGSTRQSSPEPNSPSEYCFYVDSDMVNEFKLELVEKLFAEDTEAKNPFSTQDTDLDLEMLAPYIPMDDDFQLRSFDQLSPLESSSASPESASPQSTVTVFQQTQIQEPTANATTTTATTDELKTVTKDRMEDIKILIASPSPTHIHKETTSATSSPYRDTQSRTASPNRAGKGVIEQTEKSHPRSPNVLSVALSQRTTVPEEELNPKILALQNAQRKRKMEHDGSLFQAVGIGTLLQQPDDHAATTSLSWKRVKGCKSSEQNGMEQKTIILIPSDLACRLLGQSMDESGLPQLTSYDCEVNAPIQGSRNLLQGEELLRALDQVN

Results are given in words; binding and its absence hold for the method and conditions named. In cells and extracts the contact can be indirect. Some binding calls cover weakened binding; strength is not graded here.

Experiment [1] concerns the target M2 isoform of pyruvate kinase (PKM2) (human (endogenous in MCF7 and HCC1806)) (UniProt P14618). Kind of experiment: co-IP.
For experiment [2], the target named is HIF-1α (human (endogenous in MCF7 and HCC1806)) (UniProt Q16665). Kind of experiment: co-IP.

On to HIF-1α (from UniProt Q16665 1-826), for which, in experiment [1], the binding result is listed as “binds”. Turning to “M2 isoform of pyruvate kinase (PKM2) (from UniProt P14618 1-531) (enzyme)”, the binding result in experiment [2] was “binds”.
